Reference: PubChem BioAssay AID1224829 (NIAID, 2016)

- Assay: 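Genes needed for LPS-driven NF-kappaB p65 nuclear entry in mouse macrophages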 (follow-up of hits)
- Cells: mouse RAW264.7 G9 macrophage reporter cells
- Reagent: single siRNA against mouse genes, 100 nM
- Duration: 2 days of siRNA knock-down, then 40 min of LPS before fixing
- Conditions: LPS (Salmonella minnesota R595) at 10 ng/ml
- Measurement: 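High-content images after 40 min LPS exposure; GFP-p65 nucleus to surrounding ring signal ratio, normalised to plate median and non-targeting control wells, expressed as z-score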
- Scale: p65 translocation z-score and gene median z-score, per vendor: higher = more nuclear NF-kappaB p65 after LPS
- Rule for the call: 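Active means the replicate-mean z-score lies beyond plus or minus 2, in either direction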
- Meaning of the calls: active = changed p65 translocation (either direction); inactive = no clear change
Here is a random part of about 3,800 reagents tested. 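Calls cover raised and lowered translocation; gene median uses one vendor's three siRNAs; qiagen siRNAs acted more weakly than ambion siRNAs.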 The numbers tell different reagents against one gene apart.

gene knocked down	reagent no.	siRNA vendor or control pool	p65 translocation z-score, replicate mean	p65 translocation z-score, replicate 1	p65 translocation z-score, replicate 2	gene median z-score, per vendor	outcome
Nr0b2 (nuclear receptor subfamily 0, group B, member 2)	1	ambion single siRNA	-0.0398	-0.73	0.651	-2.6	inactive
Nr0b2 (nuclear receptor subfamily 0, group B, member 2)	2	ambion single siRNA	-2.82	-2.82		-2.6	active
Nr0b2 (nuclear receptor subfamily 0, group B, member 2)	3	ambion single siRNA	-3.35	-4.1	-2.6	-2.6	active
Nr0b2 (nuclear receptor subfamily 0, group B, member 2)	4	qiagen single siRNA	-4.01	-2.56	-5.46	-5.46	active
Nr0b2 (nuclear receptor subfamily 0, group B, member 2)	5	qiagen single siRNA	-5.96	-5.96		-5.46	active
Nr0b2 (nuclear receptor subfamily 0, group B, member 2)	6	qiagen single siRNA	-3.95	-1.63	-6.28	-5.46	active
Tnfrsf13c (tumor necrosis factor receptor superfamily, member 13c)	1	ambion single siRNA	0.919	0.897	0.94	0.919	inactive
Tnfrsf13c (tumor necrosis factor receptor superfamily, member 13c)	2	ambion single siRNA	2.71	2.95	2.48	0.919	active
Tnfrsf13c (tumor necrosis factor receptor superfamily, member 13c)	3	ambion single siRNA	-1.04	-1.44	-0.635	0.919	inactive
Tnfrsf13c (tumor necrosis factor receptor superfamily, member 13c)	4	qiagen single siRNA	-0.225	0.992	-1.44	-0.225	inactive
Tnfrsf13c (tumor necrosis factor receptor superfamily, member 13c)	5	qiagen single siRNA	-2.14	-2.4	-1.88	-0.225	active
Tnfrsf13c (tumor necrosis factor receptor superfamily, member 13c)	6	qiagen single siRNA	2.48	1.86	3.09	-0.225	active
Chaf1a (chromatin assembly factor 1, subunit A)	1	ambion single siRNA	-0.598	0.382	-1.58	0.881	inactive
Chaf1a (chromatin assembly factor 1, subunit A)	2	ambion single siRNA	1.94	2.5	1.38	0.881	inactive
Chaf1a (chromatin assembly factor 1, subunit A)	3	ambion single siRNA	-0.195	1.64	-2.03	0.881	inactive
Chaf1a (chromatin assembly factor 1, subunit A)	4	qiagen single siRNA	1.45	1.63	1.26	0.993	inactive
Chaf1a (chromatin assembly factor 1, subunit A)	5	qiagen single siRNA	0.356	-0.485	1.2	0.993	inactive
Chaf1a (chromatin assembly factor 1, subunit A)	6	qiagen single siRNA	0.315	-0.158	0.789	0.993	inactive
Cacna1d (calcium channel, voltage-dependent, L type, alpha 1D subunit)	1	ambion single siRNA	-0.505	1.7	-2.71	-2.09	inactive
Cacna1d (calcium channel, voltage-dependent, L type, alpha 1D subunit)	2	ambion single siRNA	-3.87	-3.9	-3.84	-2.09	active
Cacna1d (calcium channel, voltage-dependent, L type, alpha 1D subunit)	3	ambion single siRNA	0.381	2.23	-1.47	-2.09	inactive
Cacna1d (calcium channel, voltage-dependent, L type, alpha 1D subunit)	4	qiagen single siRNA	0.899	0.197	1.6	0.0407	inactive
Cacna1d (calcium channel, voltage-dependent, L type, alpha 1D subunit)	5	qiagen single siRNA	-1.75	-1.75		0.0407	inactive
Cacna1d (calcium channel, voltage-dependent, L type, alpha 1D subunit)	6	qiagen single siRNA	-0.0883	0.0407	-0.217	0.0407	inactive

The list goes on, starting with the last 2 of the part before.
gene knocked down	reagent no.	siRNA vendor or control pool	p65 translocation z-score, replicate mean	p65 translocation z-score, replicate 1	p65 translocation z-score, replicate 2	gene median z-score, per vendor	outcome
Cacna1d (calcium channel, voltage-dependent, L type, alpha 1D subunit)	5	qiagen single siRNA	-1.75	-1.75		0.0407	inactive
Cacna1d (calcium channel, voltage-dependent, L type, alpha 1D subunit)	6	qiagen single siRNA	-0.0883	0.0407	-0.217	0.0407	inactive
Gdi2 (GDP dissociation inhibitor 2)	1	ambion single siRNA	-0.96	-1.04	-0.88	-0.96	inactive
Gdi2 (GDP dissociation inhibitor 2)	2	ambion single siRNA	0.538	-1.28	2.36	-0.96	inactive
Gdi2 (GDP dissociation inhibitor 2)	3	ambion single siRNA	-1.06	-0.253	-1.87	-0.96	inactive
Gdi2 (GDP dissociation inhibitor 2)	4	qiagen single siRNA	-4.86	-3.78	-5.94	-5.94	active
Gdi2 (GDP dissociation inhibitor 2)	5	qiagen single siRNA	-6.58	-6.58		-5.94	active
Gdi2 (GDP dissociation inhibitor 2)	6	qiagen single siRNA	-5.65	-4.79	-6.51	-5.94	active
Ptges (prostaglandin E synthase)	1	ambion single siRNA	0.16	1.06	-0.741	-0.966	inactive
Ptges (prostaglandin E synthase)	2	ambion single siRNA	-2.86	-3.4	-2.32	-0.966	active
Ptges (prostaglandin E synthase)	3	ambion single siRNA	-0.966	-0.93	-1	-0.966	inactive
Ptges (prostaglandin E synthase)	4	qiagen single siRNA	-1.05	-0.718	-1.38	-0.564	inactive
Ptges (prostaglandin E synthase)	5	qiagen single siRNA	-1.21	-0.41	-2.01	-0.564	inactive
Ptges (prostaglandin E synthase)	6	qiagen single siRNA	0.945	0.397	1.49	-0.564	inactive
Or1q1 (olfactory receptor family 1 subfamily Q member 1)	1	ambion single siRNA	-3.99	-3.95	-4.02	-1.97	active
Or1q1 (olfactory receptor family 1 subfamily Q member 1)	2	ambion single siRNA	-0.719	-0.966	-0.472	-1.97	inactive
Or1q1 (olfactory receptor family 1 subfamily Q member 1)	3	ambion single siRNA	-1.97	-1.97		-1.97	inactive
Or1q1 (olfactory receptor family 1 subfamily Q member 1)	4	qiagen single siRNA	-0.35	0.646	-1.35	-0.617	inactive
Or1q1 (olfactory receptor family 1 subfamily Q member 1)	5	qiagen single siRNA	0.638	-0.0147	1.29	-0.617	inactive
Or1q1 (olfactory receptor family 1 subfamily Q member 1)	6	qiagen single siRNA	-1.71	-2.2	-1.22	-0.617	inactive
Ly6g6d (lymphocyte antigen 6 family member G6D)	1	ambion single siRNA	-0.453	-0.0326	-0.873	-0.453	inactive
Ly6g6d (lymphocyte antigen 6 family member G6D)	2	ambion single siRNA	0.83	1.19	0.472	-0.453	inactive
Ly6g6d (lymphocyte antigen 6 family member G6D)	3	ambion single siRNA	-4.86	-5.66	-4.05	-0.453	active
Ly6g6d (lymphocyte antigen 6 family member G6D)	4	qiagen single siRNA	0.983	0.294	1.67	-1.4	inactive
Ly6g6d (lymphocyte antigen 6 family member G6D)	5	qiagen single siRNA	-2.64	-2.53	-2.75	-1.4	active
Ly6g6d (lymphocyte antigen 6 family member G6D)	6	qiagen single siRNA	-1.44	-0.28	-2.6	-1.4	inactive
Chd4 (chromodomain helicase DNA binding protein 4)	1	ambion single siRNA	0.549	2	-0.902	-1.65	inactive
Chd4 (chromodomain helicase DNA binding protein 4)	2	ambion single siRNA	-2.87	-3.35	-2.4	-1.65	active
Chd4 (chromodomain helicase DNA binding protein 4)	3	ambion single siRNA	-1.39	-0.301	-2.48	-1.65	inactive
Chd4 (chromodomain helicase DNA binding protein 4)	4	qiagen single siRNA	-1.23	-1.67	-0.788	-1.92	inactive
Chd4 (chromodomain helicase DNA binding protein 4)	5	qiagen single siRNA	-2.34	-2.45	-2.23	-1.92	active
Chd4 (chromodomain helicase DNA binding protein 4)	6	qiagen single siRNA	-1.61	-2.17	-1.06	-1.92	inactive
Inpp5b (inositol polyphosphate-5-phosphatase B)	1	ambion single siRNA	-2.66	-3.39	-1.92	-1.07	active
Inpp5b (inositol polyphosphate-5-phosphatase B)	2	ambion single siRNA	-1.66	-0.225	-3.09	-1.07	inactive
Inpp5b (inositol polyphosphate-5-phosphatase B)	3	ambion single siRNA	0.699	0.367	1.03	-1.07	inactive
Inpp5b (inositol polyphosphate-5-phosphatase B)	4	qiagen single siRNA	0.697	0.225	1.17	-0.493	inactive
Inpp5b (inositol polyphosphate-5-phosphatase B)	5	qiagen single siRNA	-0.493	0.0408	-1.03	-0.493	inactive
Inpp5b (inositol polyphosphate-5-phosphatase B)	6	qiagen single siRNA	-2.06	-1.95	-2.16	-0.493	active
Hopx (HOP homeobox)	1	ambion single siRNA	-0.857	-1.77	0.055	0.609	inactive
Hopx (HOP homeobox)	2	ambion single siRNA	2.41	3.5	1.33	0.609	active
Hopx (HOP homeobox)	3	ambion single siRNA	0.162	-0.838	1.16	0.609	inactive
Hopx (HOP homeobox)	4	qiagen single siRNA	0.957	1.91	0.00514	0.327	inactive
Hopx (HOP homeobox)	5	qiagen single siRNA	1.47	0.327	2.61	0.327	inactive
Hopx (HOP homeobox)	6	qiagen single siRNA	-2.12	-2.12		0.327	active
